The target in assay [1] is GST-CAND1 (unmodified) (human) (UniProt Q86VP6). Description: affinity purification with mass spectrometry; only the target purified.
Assay [2] has as its target GST-tagged phosphorylated CAND1 (human) (UniProt Q86VP6). Described as above.

By UniProt entry, the sequences of proteins in these tests, tags left out.
UniProt Q86VP6: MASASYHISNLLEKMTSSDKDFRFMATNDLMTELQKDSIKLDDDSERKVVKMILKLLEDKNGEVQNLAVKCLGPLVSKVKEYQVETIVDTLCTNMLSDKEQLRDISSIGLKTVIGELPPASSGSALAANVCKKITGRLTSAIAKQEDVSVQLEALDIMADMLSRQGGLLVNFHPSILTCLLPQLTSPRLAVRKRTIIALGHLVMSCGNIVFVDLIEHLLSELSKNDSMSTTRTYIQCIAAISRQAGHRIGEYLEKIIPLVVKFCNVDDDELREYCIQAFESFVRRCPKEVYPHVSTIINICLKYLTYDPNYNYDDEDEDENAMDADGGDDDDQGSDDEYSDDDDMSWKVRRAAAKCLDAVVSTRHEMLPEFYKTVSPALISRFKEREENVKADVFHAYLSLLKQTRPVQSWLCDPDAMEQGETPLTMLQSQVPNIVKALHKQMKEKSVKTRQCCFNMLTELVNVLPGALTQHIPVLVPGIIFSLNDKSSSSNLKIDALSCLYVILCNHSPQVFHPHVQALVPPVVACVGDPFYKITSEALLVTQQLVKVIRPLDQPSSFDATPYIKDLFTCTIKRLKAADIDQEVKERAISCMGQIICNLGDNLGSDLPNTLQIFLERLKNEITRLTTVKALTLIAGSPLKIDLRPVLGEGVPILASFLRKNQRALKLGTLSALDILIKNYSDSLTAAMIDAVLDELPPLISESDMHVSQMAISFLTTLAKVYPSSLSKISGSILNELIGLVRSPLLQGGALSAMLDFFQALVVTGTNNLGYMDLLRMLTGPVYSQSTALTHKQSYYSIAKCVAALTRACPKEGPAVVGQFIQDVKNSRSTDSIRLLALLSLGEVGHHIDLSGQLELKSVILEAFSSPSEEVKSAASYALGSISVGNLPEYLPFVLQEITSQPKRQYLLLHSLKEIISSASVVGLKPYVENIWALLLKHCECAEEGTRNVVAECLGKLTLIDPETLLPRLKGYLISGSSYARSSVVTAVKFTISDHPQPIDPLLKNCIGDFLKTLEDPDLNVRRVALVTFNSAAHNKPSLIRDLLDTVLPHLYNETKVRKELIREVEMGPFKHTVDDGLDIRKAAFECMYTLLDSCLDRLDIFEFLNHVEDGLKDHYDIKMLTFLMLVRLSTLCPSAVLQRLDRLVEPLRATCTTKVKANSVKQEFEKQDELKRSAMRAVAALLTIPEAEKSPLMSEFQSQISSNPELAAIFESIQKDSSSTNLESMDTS
UniProt Q93034: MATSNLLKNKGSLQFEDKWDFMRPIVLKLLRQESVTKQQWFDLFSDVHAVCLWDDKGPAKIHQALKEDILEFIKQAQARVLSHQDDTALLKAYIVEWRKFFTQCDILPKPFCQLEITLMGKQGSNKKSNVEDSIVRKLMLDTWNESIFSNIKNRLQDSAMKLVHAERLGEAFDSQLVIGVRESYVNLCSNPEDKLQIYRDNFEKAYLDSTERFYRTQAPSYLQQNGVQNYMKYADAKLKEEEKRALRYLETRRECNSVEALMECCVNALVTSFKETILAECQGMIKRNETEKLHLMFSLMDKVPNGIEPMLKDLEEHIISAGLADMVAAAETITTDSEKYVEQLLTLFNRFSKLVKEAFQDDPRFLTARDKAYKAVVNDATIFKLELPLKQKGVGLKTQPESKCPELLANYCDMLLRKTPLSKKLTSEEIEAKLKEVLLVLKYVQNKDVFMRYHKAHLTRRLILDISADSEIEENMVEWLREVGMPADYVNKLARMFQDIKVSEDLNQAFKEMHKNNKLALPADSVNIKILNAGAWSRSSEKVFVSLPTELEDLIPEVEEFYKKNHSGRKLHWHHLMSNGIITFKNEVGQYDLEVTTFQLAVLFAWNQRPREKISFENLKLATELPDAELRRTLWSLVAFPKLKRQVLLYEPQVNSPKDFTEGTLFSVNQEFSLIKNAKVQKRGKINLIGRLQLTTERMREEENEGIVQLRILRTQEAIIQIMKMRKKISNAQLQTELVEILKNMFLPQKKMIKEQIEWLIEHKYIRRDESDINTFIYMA
UniProt Q13620: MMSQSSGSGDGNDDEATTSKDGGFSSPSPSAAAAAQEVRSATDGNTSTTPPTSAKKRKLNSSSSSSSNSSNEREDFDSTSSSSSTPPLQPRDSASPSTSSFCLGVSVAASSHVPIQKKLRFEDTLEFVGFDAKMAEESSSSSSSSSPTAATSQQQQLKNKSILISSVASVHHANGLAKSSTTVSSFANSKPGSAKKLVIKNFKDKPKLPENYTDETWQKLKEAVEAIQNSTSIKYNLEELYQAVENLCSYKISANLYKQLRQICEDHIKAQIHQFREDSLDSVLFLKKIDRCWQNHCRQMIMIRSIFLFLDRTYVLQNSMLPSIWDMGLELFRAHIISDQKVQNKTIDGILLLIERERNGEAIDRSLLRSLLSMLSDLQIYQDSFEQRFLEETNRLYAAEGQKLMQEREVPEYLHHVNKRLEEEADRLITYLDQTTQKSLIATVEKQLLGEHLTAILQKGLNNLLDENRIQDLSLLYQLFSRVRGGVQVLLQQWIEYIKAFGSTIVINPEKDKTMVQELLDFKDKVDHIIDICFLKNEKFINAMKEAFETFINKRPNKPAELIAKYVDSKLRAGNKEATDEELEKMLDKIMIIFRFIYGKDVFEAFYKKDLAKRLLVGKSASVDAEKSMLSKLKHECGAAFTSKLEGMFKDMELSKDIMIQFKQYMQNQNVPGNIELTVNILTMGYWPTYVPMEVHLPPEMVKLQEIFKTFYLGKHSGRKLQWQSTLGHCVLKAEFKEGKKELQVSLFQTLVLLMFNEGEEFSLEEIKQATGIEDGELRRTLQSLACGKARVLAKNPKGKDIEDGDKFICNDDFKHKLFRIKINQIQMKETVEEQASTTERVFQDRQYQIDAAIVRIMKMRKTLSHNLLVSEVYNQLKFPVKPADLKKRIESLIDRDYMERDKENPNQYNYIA
UniProt Q13619: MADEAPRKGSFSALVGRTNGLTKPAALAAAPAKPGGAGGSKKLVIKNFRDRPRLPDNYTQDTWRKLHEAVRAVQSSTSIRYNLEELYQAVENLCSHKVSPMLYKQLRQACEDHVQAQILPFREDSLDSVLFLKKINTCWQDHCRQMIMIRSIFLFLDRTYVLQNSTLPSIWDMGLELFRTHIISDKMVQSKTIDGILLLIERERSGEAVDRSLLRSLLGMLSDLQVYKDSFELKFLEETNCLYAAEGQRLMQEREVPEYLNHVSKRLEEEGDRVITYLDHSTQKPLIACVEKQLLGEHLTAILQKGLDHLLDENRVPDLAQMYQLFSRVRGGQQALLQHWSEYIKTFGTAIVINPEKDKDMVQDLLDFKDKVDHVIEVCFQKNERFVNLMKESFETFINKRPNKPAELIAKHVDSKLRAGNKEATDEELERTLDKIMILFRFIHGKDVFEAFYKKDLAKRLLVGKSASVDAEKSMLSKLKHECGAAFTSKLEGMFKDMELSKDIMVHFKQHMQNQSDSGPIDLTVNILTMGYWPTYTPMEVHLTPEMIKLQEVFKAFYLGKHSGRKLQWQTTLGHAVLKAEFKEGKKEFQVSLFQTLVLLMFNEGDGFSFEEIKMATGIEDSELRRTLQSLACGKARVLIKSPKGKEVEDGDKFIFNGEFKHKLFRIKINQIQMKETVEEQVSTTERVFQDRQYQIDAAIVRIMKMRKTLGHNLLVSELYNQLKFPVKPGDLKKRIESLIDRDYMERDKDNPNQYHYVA

These are yes or no findings as the source states them, for the method shown. In cells and extracts the contact can be indirect. Here binding means that the protein was enriched with, or labelled near, the bait; the list need not be complete.

On to Cul5 (from UniProt Q93034 1-780), for which the binding result in assay [1] and in assay [2] was “binds” in each case.
As for Cul4B (from UniProt Q13620 1-913), the binding result in assay [1] and in assay [2] was “binds” throughout.
As for Cul4A (from UniProt Q13619 1-759), the binding entry in assay [1] and in assay [2] was “binds” in each case.

These data come from article PMC11078946.
